Molecules are shown by their SMILES. The structures given here were assigned with low confidence; some may be wrong. Where only a bound is given, the exact number is not on record here.

The chains behind the UniProt entries cited, without tags or fusion partners. Where a name states a change or a piece, a line headed by the entry shows the natural chain unless it says otherwise. Residues count along the entry.
UniProt P08581, whole entry: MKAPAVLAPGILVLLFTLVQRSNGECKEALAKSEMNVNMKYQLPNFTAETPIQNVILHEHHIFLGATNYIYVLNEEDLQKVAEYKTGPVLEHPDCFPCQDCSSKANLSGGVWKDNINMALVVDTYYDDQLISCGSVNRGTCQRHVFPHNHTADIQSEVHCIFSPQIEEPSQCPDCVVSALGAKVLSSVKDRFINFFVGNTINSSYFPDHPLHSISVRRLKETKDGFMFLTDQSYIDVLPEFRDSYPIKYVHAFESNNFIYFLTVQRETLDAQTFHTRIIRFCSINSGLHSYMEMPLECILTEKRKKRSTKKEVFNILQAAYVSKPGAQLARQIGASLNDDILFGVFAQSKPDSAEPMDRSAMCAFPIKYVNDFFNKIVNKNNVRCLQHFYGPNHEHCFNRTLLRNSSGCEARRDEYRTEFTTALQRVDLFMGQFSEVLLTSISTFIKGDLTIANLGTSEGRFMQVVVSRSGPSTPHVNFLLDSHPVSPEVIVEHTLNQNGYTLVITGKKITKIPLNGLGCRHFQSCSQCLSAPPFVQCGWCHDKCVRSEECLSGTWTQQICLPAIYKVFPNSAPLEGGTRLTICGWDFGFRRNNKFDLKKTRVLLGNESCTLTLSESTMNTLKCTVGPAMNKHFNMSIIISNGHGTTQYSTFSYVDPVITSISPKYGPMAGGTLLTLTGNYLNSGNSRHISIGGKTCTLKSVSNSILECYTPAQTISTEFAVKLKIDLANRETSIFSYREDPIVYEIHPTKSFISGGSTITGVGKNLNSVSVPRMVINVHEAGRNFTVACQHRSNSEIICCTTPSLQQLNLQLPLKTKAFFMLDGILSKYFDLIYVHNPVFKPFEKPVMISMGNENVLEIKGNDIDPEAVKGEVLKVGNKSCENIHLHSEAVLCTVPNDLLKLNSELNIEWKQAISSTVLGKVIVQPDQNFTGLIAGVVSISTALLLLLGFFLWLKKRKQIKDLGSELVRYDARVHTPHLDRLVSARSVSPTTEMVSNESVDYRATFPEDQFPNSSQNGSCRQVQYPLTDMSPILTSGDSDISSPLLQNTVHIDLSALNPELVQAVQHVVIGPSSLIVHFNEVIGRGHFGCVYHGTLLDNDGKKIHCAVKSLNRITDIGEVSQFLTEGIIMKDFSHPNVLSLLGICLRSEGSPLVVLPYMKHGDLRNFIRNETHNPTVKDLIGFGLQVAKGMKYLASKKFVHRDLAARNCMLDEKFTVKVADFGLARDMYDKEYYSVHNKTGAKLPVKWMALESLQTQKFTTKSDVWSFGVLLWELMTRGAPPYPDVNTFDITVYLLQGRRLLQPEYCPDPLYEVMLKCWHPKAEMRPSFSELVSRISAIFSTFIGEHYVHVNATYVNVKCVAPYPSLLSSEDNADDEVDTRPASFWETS
UniProt P08581, whole entry D1228N: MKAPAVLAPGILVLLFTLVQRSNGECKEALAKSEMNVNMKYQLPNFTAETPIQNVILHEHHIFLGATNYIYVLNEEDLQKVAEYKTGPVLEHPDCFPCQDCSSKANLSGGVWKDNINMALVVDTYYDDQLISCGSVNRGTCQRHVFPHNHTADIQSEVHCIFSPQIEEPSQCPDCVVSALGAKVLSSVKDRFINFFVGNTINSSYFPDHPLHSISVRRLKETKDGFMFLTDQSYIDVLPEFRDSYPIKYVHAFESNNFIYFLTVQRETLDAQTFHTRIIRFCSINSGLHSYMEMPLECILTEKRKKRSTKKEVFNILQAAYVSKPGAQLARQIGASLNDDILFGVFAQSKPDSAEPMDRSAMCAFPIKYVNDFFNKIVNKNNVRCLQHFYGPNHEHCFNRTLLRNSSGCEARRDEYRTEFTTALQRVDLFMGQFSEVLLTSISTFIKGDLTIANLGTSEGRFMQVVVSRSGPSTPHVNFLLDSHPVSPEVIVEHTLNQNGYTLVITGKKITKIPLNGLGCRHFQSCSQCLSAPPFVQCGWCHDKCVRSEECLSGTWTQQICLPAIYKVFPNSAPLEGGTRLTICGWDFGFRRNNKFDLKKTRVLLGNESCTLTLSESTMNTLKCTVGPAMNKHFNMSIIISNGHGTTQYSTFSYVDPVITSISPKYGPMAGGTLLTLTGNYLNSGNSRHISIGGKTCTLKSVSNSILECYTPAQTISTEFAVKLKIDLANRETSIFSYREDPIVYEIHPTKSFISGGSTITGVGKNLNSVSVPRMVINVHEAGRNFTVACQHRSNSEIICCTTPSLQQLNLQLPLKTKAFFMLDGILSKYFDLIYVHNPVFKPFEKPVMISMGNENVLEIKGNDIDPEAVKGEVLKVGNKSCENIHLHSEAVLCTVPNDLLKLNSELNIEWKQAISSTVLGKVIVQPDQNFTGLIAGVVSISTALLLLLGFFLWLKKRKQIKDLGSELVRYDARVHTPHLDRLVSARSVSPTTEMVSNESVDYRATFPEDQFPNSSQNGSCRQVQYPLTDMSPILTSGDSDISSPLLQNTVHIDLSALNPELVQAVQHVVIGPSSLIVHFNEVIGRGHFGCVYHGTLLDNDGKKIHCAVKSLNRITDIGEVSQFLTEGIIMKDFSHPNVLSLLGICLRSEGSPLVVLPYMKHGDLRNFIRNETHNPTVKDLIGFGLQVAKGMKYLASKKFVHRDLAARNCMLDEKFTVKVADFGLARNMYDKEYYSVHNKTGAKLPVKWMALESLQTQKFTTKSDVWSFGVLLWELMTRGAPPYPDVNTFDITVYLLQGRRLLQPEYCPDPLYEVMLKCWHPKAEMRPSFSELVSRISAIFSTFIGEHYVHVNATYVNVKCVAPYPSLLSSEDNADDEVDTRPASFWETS
UniProt P08581, 25-1390 limits assumed: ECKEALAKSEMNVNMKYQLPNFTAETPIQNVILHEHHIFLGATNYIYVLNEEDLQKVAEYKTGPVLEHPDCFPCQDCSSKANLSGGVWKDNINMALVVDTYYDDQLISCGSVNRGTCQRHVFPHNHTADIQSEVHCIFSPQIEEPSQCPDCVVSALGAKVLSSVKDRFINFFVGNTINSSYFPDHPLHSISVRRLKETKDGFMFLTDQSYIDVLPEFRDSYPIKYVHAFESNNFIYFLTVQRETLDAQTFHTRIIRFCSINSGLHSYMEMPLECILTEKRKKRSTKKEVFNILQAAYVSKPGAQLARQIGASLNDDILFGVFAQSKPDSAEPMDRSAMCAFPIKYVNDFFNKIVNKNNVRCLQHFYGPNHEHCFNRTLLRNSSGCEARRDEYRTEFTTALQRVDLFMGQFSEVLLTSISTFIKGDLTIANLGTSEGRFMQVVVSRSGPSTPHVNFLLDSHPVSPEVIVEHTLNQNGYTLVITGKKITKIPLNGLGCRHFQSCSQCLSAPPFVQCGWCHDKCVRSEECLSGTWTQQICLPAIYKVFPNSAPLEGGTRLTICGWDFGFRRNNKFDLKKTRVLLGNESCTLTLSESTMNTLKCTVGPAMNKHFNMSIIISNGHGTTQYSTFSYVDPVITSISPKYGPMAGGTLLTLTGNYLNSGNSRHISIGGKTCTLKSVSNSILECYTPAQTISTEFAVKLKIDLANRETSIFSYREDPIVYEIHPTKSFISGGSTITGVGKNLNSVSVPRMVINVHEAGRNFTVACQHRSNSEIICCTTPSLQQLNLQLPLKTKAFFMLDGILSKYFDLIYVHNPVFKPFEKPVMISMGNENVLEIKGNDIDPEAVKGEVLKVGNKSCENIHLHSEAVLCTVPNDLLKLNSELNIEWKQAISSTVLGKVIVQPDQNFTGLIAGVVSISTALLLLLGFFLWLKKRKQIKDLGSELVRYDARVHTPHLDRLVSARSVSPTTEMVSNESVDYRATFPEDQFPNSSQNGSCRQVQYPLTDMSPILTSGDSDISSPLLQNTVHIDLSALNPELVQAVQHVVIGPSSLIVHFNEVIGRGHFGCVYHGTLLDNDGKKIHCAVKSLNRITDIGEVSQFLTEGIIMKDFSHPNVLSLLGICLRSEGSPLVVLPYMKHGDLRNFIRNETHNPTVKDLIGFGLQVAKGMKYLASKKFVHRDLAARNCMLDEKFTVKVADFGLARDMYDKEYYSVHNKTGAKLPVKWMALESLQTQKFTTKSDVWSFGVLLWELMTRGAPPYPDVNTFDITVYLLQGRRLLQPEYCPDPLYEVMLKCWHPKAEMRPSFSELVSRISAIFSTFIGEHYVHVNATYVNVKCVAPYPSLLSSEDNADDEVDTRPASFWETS
UniProt P08581, 25-1390 D1228N limits assumed: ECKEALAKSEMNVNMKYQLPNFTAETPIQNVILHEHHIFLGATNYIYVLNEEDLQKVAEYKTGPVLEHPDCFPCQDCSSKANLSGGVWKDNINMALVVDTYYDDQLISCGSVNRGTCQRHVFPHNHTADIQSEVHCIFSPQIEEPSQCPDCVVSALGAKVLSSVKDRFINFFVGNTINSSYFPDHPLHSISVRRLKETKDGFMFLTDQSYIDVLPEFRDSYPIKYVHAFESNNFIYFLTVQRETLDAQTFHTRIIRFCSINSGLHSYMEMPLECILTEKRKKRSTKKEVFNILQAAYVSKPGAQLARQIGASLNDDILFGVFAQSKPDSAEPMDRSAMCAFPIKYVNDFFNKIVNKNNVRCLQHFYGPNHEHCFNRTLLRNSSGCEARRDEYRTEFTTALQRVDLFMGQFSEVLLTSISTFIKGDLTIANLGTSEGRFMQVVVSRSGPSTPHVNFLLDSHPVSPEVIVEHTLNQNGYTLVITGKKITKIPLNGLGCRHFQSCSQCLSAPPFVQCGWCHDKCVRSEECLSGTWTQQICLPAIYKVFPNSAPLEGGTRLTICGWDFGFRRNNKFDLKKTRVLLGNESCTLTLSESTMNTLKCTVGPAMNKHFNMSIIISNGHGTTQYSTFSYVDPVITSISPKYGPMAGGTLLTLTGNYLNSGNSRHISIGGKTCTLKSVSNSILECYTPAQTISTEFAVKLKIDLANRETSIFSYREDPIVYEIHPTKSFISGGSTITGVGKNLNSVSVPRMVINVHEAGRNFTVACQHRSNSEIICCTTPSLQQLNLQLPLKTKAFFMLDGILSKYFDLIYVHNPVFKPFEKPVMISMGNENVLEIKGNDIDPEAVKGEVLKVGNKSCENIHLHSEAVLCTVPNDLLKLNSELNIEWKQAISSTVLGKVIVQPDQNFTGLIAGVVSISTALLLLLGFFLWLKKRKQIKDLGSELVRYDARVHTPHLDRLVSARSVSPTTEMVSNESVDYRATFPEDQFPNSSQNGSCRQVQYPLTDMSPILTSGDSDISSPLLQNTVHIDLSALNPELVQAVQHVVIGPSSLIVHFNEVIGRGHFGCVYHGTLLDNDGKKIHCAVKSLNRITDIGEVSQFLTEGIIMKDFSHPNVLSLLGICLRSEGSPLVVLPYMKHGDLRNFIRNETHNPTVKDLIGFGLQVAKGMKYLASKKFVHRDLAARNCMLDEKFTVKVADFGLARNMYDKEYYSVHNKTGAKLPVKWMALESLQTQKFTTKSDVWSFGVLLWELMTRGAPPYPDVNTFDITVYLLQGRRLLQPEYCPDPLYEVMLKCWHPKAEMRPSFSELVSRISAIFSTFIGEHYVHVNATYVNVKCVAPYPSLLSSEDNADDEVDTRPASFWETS

The target of one assay is Ba/F3-TPR-MET cells (Homo sapiens, UniProt P08581). In words: CellTiter-Glo Cell Viability Assay, Ba/F3-TPR-MET. The following applies: read-out: Ba/F3-TPR-MET, 72 hours. The protocol:
(§1) Ba/F3-TPR-MET and Ba/F3-TPR-MET-D1228N cells were seeded at 3000 cells per well in a 96 well plate in 90 μL growth media and allowed to incubate overnight at 37° C. with 5% CO2. The following day, compounds were serially diluted from a 10 mM top dose for a 9-point 3-fold dilution curve in DMSO. Following a 100-fold dilution in growth media, a further 10-fold dilution was made into the cell plate for a final volume of 100 μL and 0.1% DMSO. Compounds and cells were incubated together for 72 hours at 37° C. with 5% CO2. The CellTiter-Glo® 2.0 Assay determines the number of viable cells in culture by quantifying ATP, which indicates the presence of metabolically active cells. Luminescence readout is directly proportional to the number of viable cells in culture. CellTiter-Glo reagent (Promega, G9243) and cell plates were allowed to equilibrate to room temperature for at least 15 min, then 100 μL of CellTiter-Glo was added to each well for a 1:1 ratio of reagent to media. Samples were placed on a shaker for 2 min prior to a 30 min incubation at room temperature protected from light. Luminescence was read on a Perkin Elmer Envision plate reader 2105 and used to calculate ICso values within the Dotmatics Knowledge Solutions Studies curve fitting environment (Dotmatics, Bishops Stortford, UK, CM23) and are presented in Table 2.
(In general: Cellular ATP, detected with luciferase, serves as a proxy for viable cell number.)

Another assay has as its target MET (Homo sapiens, UniProt P08581). In words: MET Mobility Shift Assay. The following applies: read-out: MET; biochemical assay IC50; 100 μM ATP, 60 minute kinase reaction. How it is done: (§2) Small molecule inhibition of MET kinase activity was evaluated using a fluorescence-based microfluidic mobility shift assay. MET catalyzes the production of ADP from ATP during phosphoryl transfer to the substrate peptide, FLPeptide30 (5-FAM-KKKKEEIYFFF-CONH2) (Perkin Elmer, 760430). MET enzme (Carna Biosciences, 08-151) at 0.625 nM was prepared with 10 mM MgCl2 and 1.5 μM substrate peptide in a buffer containing 50 mM HEPES, 1 mM EGTA, 0.01% Brij-35, 0.05% BSA, and 2 mM DTT and pre-incubated at room temperature for 30 min prior to the start of the reaction. 100 μM ATP was added to start the reaction. The mobility shift assay electrophoretically separates the fluorescently labeled peptides (substrate and phosphorylated product) following the 60 minute kinase reaction. The reaction was terminated by addition of 0.5 M EDTA. Both substrate and product were measured and the ratio of these values used to generate % conversion of substrate to product by the LabChip EZ reader (Perkin Elmer). ICso values were calculated using the inhibition of conversion ratio using Dotmatics Knowledge Solutions Studies curve fitting environment (Dotmatics, Bishops Stortford, UK, CM23) and are presented in Table 2.

In assay [1] the target is Ba/F3-TPR-MET-D1228N cells (Homo sapiens, UniProt P08581, D1228N, cells depend on it). In words: CellTiter-Glo Cell Viability Assay, Ba/F3-TPR-MET-D1228N. The following applies: read-out: Ba/F3-TPR-MET-D1228N, 72 hours. How it is done:
as §1

A further assay addresses MET D1228N (Homo sapiens, UniProt P08581, D1228N). Kind of assay: MET D1228N Mobility Shift Assay. The following applies: read-out: MET-D1228N; biochemical assay IC50; 100 μM ATP, 60 minute kinase reaction. How it is done:
as §2, with “MET D1228N” for “MET”, “a fluorescence -based” for “a fluorescence-based”, “FLPeptide30 (5-FAM-KKKKEEIYFFF -CONH2)” for “FLPeptide30 (5-FAM-KKKKEEIYFFF-CONH2)”, “MET D1228N enzyme (Signalchem, M52-12IG)” for “MET enzme (Carna Biosciences, 08-151)”, “at 0.313” for “at 0.625”

`COc1cc2c(Oc3c(F)cc(NC(=O)c4cnccc4OC4CC4)cc3F)ccnc2cc1OCC[C@@H](C)O`: the EC50 on Ba/F3-TPR-MET cells lay in the range of 1 to 10 µM; in assay [1], 100 to 1000 nM. Also, the IC50 on MET and at MET D1228N was under 100 nM in each case.

The record behind these values is patent US11753395B2 (Kinnate Biopharma Inc., priority 2021, dated 2023).
